Data from paper PMC8134555.
Results are given in words; binding and its absence hold for the method and conditions named. In cells and extracts the contact can be indirect.

Target: T1, macrophage migration inhibitory factor (MIF), endogenous (human (endogenous in MDA-MB-231 and HeLa)) (UniProt P14174)
T1 sequence: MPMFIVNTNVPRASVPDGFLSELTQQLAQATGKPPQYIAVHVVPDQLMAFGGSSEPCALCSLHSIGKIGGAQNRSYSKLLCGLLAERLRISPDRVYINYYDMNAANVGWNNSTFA
Experiment: co-IP; V5-tagged full-length PARP1 and truncates with MIF; cells and antibodies not stated

binding: no binding
Substance: V5-tagged PARP1 ΔZn (human) (domain or fragment)
